According to PubChem BioAssay AID504834 (National Center for Advancing Translational Sciences (NCATS), 2011):
The campaign covered roughly 320,000 compounds. About 22,000 (6.9%) were called active. This list was built around the results that the source calls inconclusive (neither active nor inactive); the mix of calls is not that of the screen. The call rests on the fitted dose curve; in most records, active means well fitted inhibition curve with a large enough effect; inconclusive means small, poorly fitted or top-dose-only effect, or another doubt; inactive means no such curve, though single readings can be large or run the other way. A potency beside an inconclusive call is a rough fit, not a confirmed value.

Experiment: Primary qHTS for delayed death inhibitors of the malarial parasite plastid, 96 hour incubation
Details: P. falciparum luciferase reporter growth; series mostly up to 28.7 µM
Method in brief: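 96 h incubation, 37 C, 5% CO2, of luciferase-reporter P. falciparum-infected RBCs (2% hematocrit, 0.05% parasitemia final) with test compounds; endpoint luminescence.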
Potency means the concentration at half of the fitted maximal effect.

| SMILES | Potency |
| --- | --- |
| CCOC(=O)N1CCC(NC(=O)C2CCN(c3ccc(N4CCOCC4)nn3)CC2)CC1 | inconclusive: 18.5 µM [inhibitor, single point] |
| COc1ccc(/C(C)=N/NC2=NCCN2)cc1Cl | active: 3.7 µM |
| CCN(C(=O)Cc1c(C(=O)O)n(C)c2ccccc12)c1ccc(F)cc1 | inconclusive: 2.33 µM [inhibitor, full curve, poor fit] |
| COc1ccc2c(c1)OC[C@H]1[C@H]2N2C(=O)c3cc(OC)c(OC)cc3NC(=O)[C@@]2(C)[C@H]1c1ccccc1 | active: 6.57 µM |
| CC(=Nc1ccccc1N)c1c(O)n(C)c(=O)[nH]c1=O | inconclusive: 20.8 µM [inhibitor, partial curve, poor fit] |
| Cc1ccc(SCCN2CCC(NC(=O)OCc3ccccc3)CCC2=O)cc1 (configuration not stated) | inconclusive: 18.5 µM [inhibitor, single point] |
| O=C(COc1ccc(S(=O)(=O)Nc2ccccc2)cc1)NCc1ccccn1 | inconclusive: 14.7 µM [inhibitor, partial curve, poor fit] |
| CCCCNC(=O)c1onc(CSc2ccccc2)c1C(=O)NCCCC | active: 11.7 µM |
| O=C(Nc1ccnn1C1CCN(C2CCC2)CC1)c1cccc(F)c1 | inconclusive: 9.28 µM [inhibitor, partial curve] |
| Cn1c(CC(=O)Nc2ccccc2)cc2ccccc21 | inactive |
| Cc1ccc(NC(=O)CSc2ncn[nH]2)cc1S(=O)(=O)N1CCOCC1 | inactive |
| CCCc1cc(=O)oc2c3c(c(Cl)cc12)OCN(CCCO)C3 | inactive |
| O=C(NC1CCCCCC1)c1ccc[nH]c1=S | inconclusive: 18.5 µM [inhibitor, single point] |
| COCCNC(=O)NC1(C(F)(F)F)Oc2ccc(Cl)cc2O1 (configuration not stated) | inactive |
| CCOC(=O)C1(CCOc2ccccc2)CCN(Cc2cccs2)CC1 | inconclusive: 13.1 µM [inhibitor, single point] |
| COCc1nnc(NC(=O)c2ccc(S(=O)(=O)N3CCCCCC3)cc2)o1 | inactive |
| Cc1ncoc1C(=O)N1CCCC(CCC(=O)NCc2ccc(F)c(F)c2)C1 (configuration not stated) | inactive |
| Fc1ccc(CN2CCN(C(c3ccccc3)c3ccccc3)CC2)cc1 | inconclusive: 11.7 µM [inhibitor, single point] |
| O=C(N/N=C/c1ccc(Cl)cc1)c1cc(-c2cccnc2)nc2ccccc12 | inconclusive: 3.7 µM [inhibitor, single point] |
| COc1ccc(/C=C2\Oc3cc(OCC(=O)N4CCC[C@H]4C(=O)O)ccc3C2=O)c(OC)c1OC | inconclusive: 10.4 µM [inhibitor, single point] |
| NC(=O)c1cc([N+](=O)[O-])ccc1NCc1cccc(N)c1 | inconclusive: 18.5 µM [inhibitor, single point] |
| CC(=O)Nc1ccc(S(=O)(=O)N2CCC(C(=O)Nc3nccs3)CC2)cc1 | inconclusive: 13.1 µM [inhibitor, partial curve] |
| COc1ccc(CSc2nnc(N)s2)cc1F | inconclusive: 18.5 µM [inhibitor, single point] |
| Cc1ccc(C)c(NC(=O)c2ccccc2O)c1 | inconclusive: 18.5 µM [inhibitor, single point] |

Part of the list above, set out differently.
SMILES	Potency
O=C(COc1ccc(S(=O)(=O)Nc2ccccc2)cc1)NCc1ccccn1	inconclusive: 14.7 µM [inhibitor, partial curve, poor fit]
CCCCNC(=O)c1onc(CSc2ccccc2)c1C(=O)NCCCC	active: 11.7 µM

Going on with the list.

| SMILES | Potency |
| --- | --- |
| CC(C)COC(=O)N1CCN(S(=O)(=O)c2ccc3c(c2)CCC3)CC1 | inconclusive: 18.5 µM [inhibitor, single point] |
| Cc1c(CN2CCC(n3nccc3NC(=O)c3cccc(F)c3)CC2)cnn1C | inconclusive: 9.28 µM [inhibitor, single point] |
| CN(C1CCCCC1)S(=O)(=O)c1ccc(SCC(=O)NC(C)(C)C)nc1 | inconclusive: 16.5 µM [inhibitor, partial curve, poor fit] |
| COC(=O)C1=C(C)N=C2SCCC(=O)N2C1/C=C/c1ccccc1 (configuration not stated) | inconclusive: 18.5 µM [inhibitor, single point] |
| CC(C)=Nc1ccccc1C1COC(=O)C1=N (configuration not stated) | inactive |
| C=CCn1c(SCCOC)nc2c1c(=O)[nH]c(=O)n2C | inconclusive: 9.28 µM [inhibitor, single point] |
| COC(=O)c1ccc(C(=O)OC)c(NC(=O)/C=C/C(=O)O)c1 | inactive |
| Cc1ccc(OC(=O)c2cccc([N+](=O)[O-])c2)c(-n2nc3ccccc3n2)c1 | inactive |
| COc1ccc(NC(=O)Cc2ccc(Cl)cc2)cc1S(=O)(=O)N1CCCCC1 | active: 10.4 µM |
| CCOc1ccccc1NC(=O)CCCn1cc([N+](=O)[O-])cn1 | active: 3.29 µM |
| CC(CN1CCCC1)OC(=O)c1ccc(Cl)cc1 (configuration not stated) | inactive |
| Cc1ccc(NC(=O)c2ccc(OCC3CCCO3)cc2)cc1 (configuration not stated) | inactive |
| O=C(C1CCC(=O)N(C2CC2)C1)N1CCN(c2ccccc2Cl)CC1 (configuration not stated) | inconclusive: 18.5 µM [inhibitor, partial curve, poor fit] |
| CC(=O)Nc1ccc(NC(=O)c2ccccc2N(C)S(=O)(=O)c2ccc(C)cc2)cc1 | inactive |
| CC(C)c1nc2sc3c(NCc4ccco4)ncnc3c2c2c1COC(C)(C)C2 | inconclusive: 7.38 µM [inhibitor, partial curve, poor fit] |
| Cc1csc(/N=C/c2ccc([N+](=O)[O-])cc2)n1 | inactive |
| COc1ccc(C)cc1C1=CC(=O)C[C@H](c2ccc(F)cc2)C1 | inconclusive: 2.94 µM [inhibitor, single point] |
| Cc1ccc(S(=O)(=O)N2CCC(C(=O)NCCC3=CCCCC3)CC2)cc1C | inconclusive: 10.4 µM [inhibitor, single point] |
| CC(C)(C)c1ccc(O)c(O)c1 | inactive |
| COc1ccc(-c2oc(=O)c3cc(OC)c(OC)cc3c2/C=C/c2ccc(F)cc2)cc1 | inconclusive: 14.7 µM [inhibitor, single point] |
| CC(C)(C)/C(O)=C/c1nc2cc(Cl)ccc2oc1=O | active: 5.86 µM |
| O=C(Cc1cccc2ccccc12)NN1C(=O)C2C(C1=O)C1C=CC2C12CC2 (configuration not stated) | inconclusive: 2.62 µM [inhibitor, partial curve, poor fit] |
| Cc1nc(-c2ccncc2)nc(NCCNc2ncccc2C(F)(F)F)c1Cl | inconclusive: 4.15 µM [inhibitor, partial curve, poor fit] |
